The target of this data set is T1, IRF1 DBD-mNeonGreen (UniProt P10914).
T1 sequence (looked up): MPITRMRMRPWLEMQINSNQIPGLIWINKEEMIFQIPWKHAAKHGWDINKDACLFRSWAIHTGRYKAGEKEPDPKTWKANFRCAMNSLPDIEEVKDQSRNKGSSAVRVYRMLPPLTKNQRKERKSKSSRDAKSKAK
Description: mass photometry. As to conditions: 1:1 protein:DNA, slight increase to ~50 kDa, likely minor nonspecific interactions, 1:1 molar protein:DNA, 4 h at room temperature, protein lysed in PBS with 360 mM NaCl, 10% glycerol, DTT (assay buffers and pH not given), PBM: PBS, recombinant protein, residues 1-136, protein details: mNeonGreen fusion (42 kDa total).

For at least one entry, the source does not settle the construct or the ends of the probe. A weaker result is weaker than the reference pair of the same experiment. Where a protein sequence is shown, tags need not be part of it.

“ATATTACGTCGCACTAGGATAGATCT (double strand) [scrambled DNA (NS)]”: the binding result is listed as “binds more weakly”.

The record behind these values is PMC12887176, “IRF1 is a context-dependent homeostatic gatekeeper of basal immunity and antiviral readiness”.
